PubChem BioAssay AID652272, Drosophila RNAi Screening Center | 2013

- Screen: 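Genes whose knock-down decreases or increases Hedgehog reporter output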 (primary screen)
- System: Drosophila clone 8 (Cl8) cells
- Knock-down reagent: long dsRNA against Drosophila genes
- Read-out: 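Plate reader light from a firefly reporter under a ptc promoter fragment that responds to Hedgehog, with Renilla light as transfection reference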
- Scale: firefly Hh reporter signal: higher = more ptc reporter light; Renilla reference signal: higher = more Renilla control light
- Active means: 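Called a hit if the two-replicate mean z-score lies below -2 or above +3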
- Meaning of the calls: active = hit: reporter lowered or raised; inactive = not a hit
In all, the deposit lists about 21,000 reagents; shown is a random part of those with a known target gene and a result. Over the whole deposit, 503 (2.4%) are marked active. 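Raw plate light values, not normalised; calls rest on replicate z-scores that were not deposited; hits include reporter decreases as well as increases.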 Entries without a mark were called inactive. A plus sign joins genes that one reagent is predicted to hit. The record does not give: the amount of reagent, the time to read-out.

The first 9 entries, to show the layout:
| gene knocked down | amplicon | firefly Hh reporter signal, replicate 1 | firefly Hh reporter signal, replicate 2 | firefly Hh reporter signal, replicate 3 | Renilla reference signal, replicate 1 | Renilla reference signal, replicate 2 |
| --- | --- | --- | --- | --- | --- | --- |
| corolla | DRSC20102 | 1.09e5 | 1.34e5 | – | 2466 | 2804 |
| Reph | DRSC00634 | 1.42e5 | 1.50e5 | – | 5604 | 6205 |
| CG33543 | DRSC00384 | 92592 | 96333 | – | 2050 | 2092 |
| CG33543 | DRSC00385 | 1.07e5 | 99356 | – | 2057 | 2416 |
| CG42597 | DRSC03681 | 1.21e5 | 2.32e5 | – | 2996 | 10115 |
| Lon | DRSC11049 | 75863 | 55171 | – | 2618 | 1813 |
| NitFhit | DRSC08680 | 83392 | 48969 | – | 2844 | 3525 |
| Clc | DRSC11116 | 99827 | 94087 | – | 3664 | 3532 |
| betaNACtes1 | DRSC19534 | 1.21e5 | 2.81e5 | – | 3031 | 10744 |

Results, from the first entry:
| gene knocked down | amplicon | firefly Hh reporter signal, replicate 1 | firefly Hh reporter signal, replicate 2 | firefly Hh reporter signal, replicate 3 | Renilla reference signal, replicate 1 | Renilla reference signal, replicate 2 |
| --- | --- | --- | --- | --- | --- | --- |
| corolla | DRSC20102 | 1.09e5 | 1.34e5 | – | 2466 | 2804 |
| Reph | DRSC00634 | 1.42e5 | 1.50e5 | – | 5604 | 6205 |
| CG33543 | DRSC00384 | 92592 | 96333 | – | 2050 | 2092 |
| CG33543 | DRSC00385 | 1.07e5 | 99356 | – | 2057 | 2416 |
| CG42597 | DRSC03681 | 1.21e5 | 2.32e5 | – | 2996 | 10115 |
| Lon | DRSC11049 | 75863 | 55171 | – | 2618 | 1813 |
| NitFhit | DRSC08680 | 83392 | 48969 | – | 2844 | 3525 |
| Clc | DRSC11116 | 99827 | 94087 | – | 3664 | 3532 |
| betaNACtes1 | DRSC19534 | 1.21e5 | 2.81e5 | – | 3031 | 10744 |
| CG17780 + CG17781 | DRSC15266 | 5.55e5 | 83008 | – | 26464 | 2853 |
| CG5078 | DRSC11762 | 89568 | 68109 | – | 3395 | 1911 |
| CG1847 | DRSC19810 | 1.55e5 | 97398 | – | 3590 | 2372 |
| Uba5 | DRSC19775 | 1.01e5 | 3.67e5 | – | 4017 | 12803 |
| CG7272 | DRSC10795 | 1.10e5 | – | – | 3355 | 2896 |
| CG10560 | DRSC14256 | 5.65e5 | 99948 | – | 37284 | 2794 |
| Tapdelta | DRSC05946 | 77570 | 56976 | – | 3680 | 2116 |
| CG10527 | DRSC04078 | 92118 | 56832 | – | 3968 | 2521 |
| cuff | DRSC06315 | 82231 | 67867 | – | 1112 | 4200 |
| Msh6 | DRSC10759 | 78209 | – | – | 3074 | 2218 |
| Agpat3 | DRSC10445 | 98818 | 53232 | – | 3792 | 1904 |
| CG3502 | DRSC04381 | 73408 | 67961 | – | 2857 | 2772 |
| asRNA:CR42547 + CG15674 | DRSC04264 | 77712 | 43825 | – | 2086 | 4309 |
| CR10991 | DRSC12156 | 1.48e5 | 1.83e5 | – | 5696 | 4845 |
| msl-3 | DRSC11371 | 41644 | 67280 | – | 87 | 4193 |
| l(3)psg2 | DRSC10484 | 1.02e5 | 91109 | – | 3632 | 2713 |
| CG1142 | DRSC12531 | 1.33e5 | 1.61e5 | – | 4087 | 5496 |
| Or85b | DRSC16765 | 63040 | 1.07e5 | – | 1243 | 3308 |
| CG14443 | DRSC17936 | 72107 | 1.45e5 | – | 2726 | 5850 |
| Swim | DRSC04334 | 59869 | 61864 | – | 2583 | 2125 |
| Drak | DRSC19778 | 73701 | 2.02e5 | – | 3123 | 8625 |
| CG7886 | DRSC16333 | 73632 | 74282 | – | 2646 | 2064 |
| blow | DRSC07586 | 80019 | 60924 | – | 2572 | 2149 |
| Cyp313a2 | DRSC16625 | 62880 | 1.09e5 | – | 2113 | 3082 |
| CG15705 | DRSC06576 | 61776 | 43984 | – | 1788 | 2748 |
| verm | DRSC11038 | 85964 | 84736 | – | 3777 | 3418 |
| CG31055 | DRSC13832 | 39106 | 2.64e5 | – | 11202 | 5956 |
| CG13077 | DRSC02181 | 89328 | 35601 | – | 2064 | 3529 |
| UbcE2H | DRSC18221 | 1.12e5 | 88296 | – | 2309 | 1940 |
| CG34435 | DRSC18086 | 64882 | 1.53e5 | – | 2549 | 6156 |
| Ahcy | DRSC19329 | 84044 | 82172 | – | 2407 | 2301 |
| CG1695 | DRSC20538 | 87716 | 2.70e5 | – | 2055 | 11122 |
| CG33333 | DRSC13233 | 57971 | 1.72e5 | – | 12133 | 3756 |
| smo | DRSC00837 | 11381 (active) | 10996 | – | 3385 | 2768 |
| Hsp26 | DRSC11189 | 1.45e5 | 65341 | – | 5296 | 2601 |
| CG10943 | DRSC09805 | 48933 | 58845 | 57607 | 4741 | 4373 |
| topi | DRSC16431 | 72768 | 98119 | – | 1865 | 2945 |
| CG14130 | DRSC10134 | 36326 | 49460 | 49621 | 4048 | 4291 |
| Pcyt2 | DRSC08531 | 1.40e5 | 1.17e5 | – | 5666 | 5186 |
| CG34326 (retired record) | DRSC19165 | 7.49e5 | 2.22e5 | – | 43392 | 4118 |
| CG12078 | DRSC08242 | 85317 | 66112 | – | 2961 | 4265 |
| CG32202 | DRSC09989 | 1.68e5 (active) | – | – | 3168 | 3840 |
| atl | DRSC16089 | 1.12e5 | 82043 | – | 5024 | 3434 |
| Vha16-5 | DRSC02986 | 1.34e5 | 55248 | – | 3443 | 4707 |
| Acam + CG17770 | DRSC14110 | 3.86e5 | 80727 | – | 22437 | 2674 |
| Acam + CG17770 | DRSC15264 | 4.17e5 | 1.17e5 | – | 23629 | 3746 |
| CG9667 | DRSC16535 | 66157 (active) | 64084 | – | 4096 | 2870 |
| CCT8 | DRSC07130 | 46357 | 35920 | – | 1908 | 1648 |
| Nup35 | DRSC19999 | 1.26e5 | 69117 | – | 3033 | 1709 |
| CG13590 | DRSC04226 | 1.20e5 | 91750 | – | 2743 | 8146 |
| Syn1 | DRSC11803 | 1.33e5 | 1.20e5 | – | 4592 | 6931 |
| Syn1 | DRSC11804 | 96480 | 1.05e5 | – | 3114 | 5992 |
| nht | DRSC01976 | 1.31e5 | 5.23e5 | 1.03e5 | 3072 | 29430 |
| Hand | DRSC02656 | 1.35e5 | 47867 | – | 3250 | 4201 |
| Egfr | DRSC03871 | 1.33e5 | 2.64e5 | – | 3920 | 12801 |
| Egfr | DRSC04613 | 1.26e5 | 52368 | – | 4768 | 2452 |
| CG12091 | DRSC08251 | 62656 | 55913 | – | 2313 | 3928 |
| TfIIA-S-2 | DRSC17791 | 86155 | 2.53e5 | – | 2016 | 9974 |
| lft | DRSC02236 | 68070 | 67207 | – | 2298 | 6475 |
| Ir48c | DRSC06154 | 65947 | 77020 | – | 1786 | 5475 |
| Nrx-IV | DRSC11238 | 1.10e5 | 68677 | – | 4295 | 2931 |
| CG18179 | DRSC10303 | 34710 | 43965 | 47801 | 3572 | 3035 |
| COX5BL | DRSC02123 | 1.34e5 | 70653 | – | 2520 | 7096 |
| Pdxk | DRSC10419 | 27238 | 41763 | 55073 | 3701 | 4345 |
